Source: patent US12691114B2, “Compositions for inhibition of herpesviruses” (The Medical College of Wisconsin, Inc., priority 2020, dated 2026)
At least one structure is not confirmed: it was looked up by name or label, or the drawing left a doubt. Some results were stated once for a whole list of compounds, not compound by compound.

Columns and labels:
[1] = molecular target: HCMV Towne (pp28-luciferase); test: pp28-luciferase HCMV Towne assay in HFFs, luciferase activity at 72 hpi; type: cell-based, human cytomegalovirus
Description: A GCV-resistant HCMV pp28-luciferase that contains a C607Y mutation in UL97 was reported^37. The HCMV TB40 strain was obtained from ATCC (VR-1578). Clinical isolates of Human Herpesvirus 1 and 2 (HSV1, HSV2) were collected from the Johns Hopkins Microbiology laboratory without identifiers that could link them to a specific patient. Mouse CMV (MCMV) Smith strain (ATCC VR-1399) was used for infection of MEFs.
Luciferase activity: Cell lysates were collected at 72 hpi and luciferase activity was determined using the Glomax-Multi+Detection System (Promega, Madison, WI) as described previously^20.
HCMV inhibition was measured by luciferase activity of pp28-recombinant Towne and pp28 GCV-resistant Towne strains of HCMV (72 hpi) and by plaque reduction using HCMV Towne or TB40 (10 days). Viral protein expression was measured by Western blot.

HCMV Towne = test: Add-on and removal assays, luciferase at 72 hpi; type: cell-based, human cytomegalovirus
Protocol: Add-on and removal assays: These assays were performed to identify at which stage during HCMV replication the compounds had maximal activity. In the add-on group, compounds were added to infected HFFs at 0, 6, 24, and 48 hpi, and luciferase activity was measured at 72 hpi. In the removal group, compounds were added immediately after virus infection and were subsequently removed after 0, 6, 24, and 48 h; luciferase was measured at 72 hpi.
Timing of HCMV inhibition: Add-on and removal assays were performed. Compounds were added or removed at 0, 6, 12, 24, 36 and 48 hpi, and luciferase activity was measured at 72 hpi.

SMILES | EC50—Towne (μM) [1] | time of anti-HCMV activity (HCMV Towne)
Nc1c(S(=O)(=O)c2cccs2)c2nc3ccccc3nc2n1Cc1ccccc1 [MLS8091] | 0.39±0.0.5 μM | 
CCc1ccc(NC(=O)[C@H](Cc2c[nH]c3ccccc23)NC(=O)[C@@H]2Cc3ccccc3CN2)cc1 [MLS8554] |  | 0-24 hpi
CCN1CCN(CCCNC(=O)c2ccc3c(c2)sc2nc(-c4ccc(OC)cc4)cn23)CC1 [NFU1827, N-[3-(4-ethylpiperazin-1-yl)propyl]-4-(4-methoxyphenyl)-7-thia-2,5-diazatricyclo [6.4.0.02,6] dodeca-1(8),3,5,9,11-pentaene-10-carboxamide] |  | 0-24 hpi
